Assay: peptide synthesis
Conditions: whole synthesis

| Substance | final purity (method not given) [%] | isolated yield [%] | final purity (method not given) (run 1) [%] |
| --- | --- | --- | --- |
| (IESDV)2PEG4 | 98 | 24 |  |
| (IETAV)2PEG4 |  | 35 |  |
| (IESDV)2PEG8 |  | 23 | 98 |
| (IESDV)2PEG6 |  | 23 |  |
| (IESDV)2PEG12 |  | 40 | 98 |
